Test results as given in patent US20050053940.
Construct, isoform or probe ends are uncertain for at least one entry. For some of these results: No signal at the amounts used counts as a negative. Where a protein sequence is shown, tags need not be part of it.

Experiments:
[1] = target: T1, HD/TF-1 C-terminal fragment (Homo sapiens) (UniProt Q9NR83); test: footprint; conditions: DNase I; protects 7 bp gccggcg, three sites with 13 bp spacers; 10-400 ng protein; purified recombinant protein; protein details: GST fusion (pGEX-5); label: 32P
T1 sequence: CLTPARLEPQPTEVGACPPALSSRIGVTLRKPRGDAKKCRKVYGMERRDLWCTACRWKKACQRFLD

[2] = target: T2, HD/TF-2 C-terminal fragment (Homo sapiens) (UniProt Q9H8N7); test: footprint; conditions: DNase I; protects 7 bp gccggcg, three sites with 13 bp spacers; 10-400 ng protein; purified recombinant protein; protein details: GST fusion (pGEX-5); label: 32P
T2 sequence: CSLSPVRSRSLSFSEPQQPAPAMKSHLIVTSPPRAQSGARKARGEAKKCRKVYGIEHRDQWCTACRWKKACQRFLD

[3] = target: T3, clone 2 cDNA product (partial HD/TF-1) (Homo sapiens) (UniProt Q9NR83); test: one hybrid; conditions: yeast one-hybrid reporter, unlabeled; protein in cells; label: 32P
T3 sequence (limits assumed): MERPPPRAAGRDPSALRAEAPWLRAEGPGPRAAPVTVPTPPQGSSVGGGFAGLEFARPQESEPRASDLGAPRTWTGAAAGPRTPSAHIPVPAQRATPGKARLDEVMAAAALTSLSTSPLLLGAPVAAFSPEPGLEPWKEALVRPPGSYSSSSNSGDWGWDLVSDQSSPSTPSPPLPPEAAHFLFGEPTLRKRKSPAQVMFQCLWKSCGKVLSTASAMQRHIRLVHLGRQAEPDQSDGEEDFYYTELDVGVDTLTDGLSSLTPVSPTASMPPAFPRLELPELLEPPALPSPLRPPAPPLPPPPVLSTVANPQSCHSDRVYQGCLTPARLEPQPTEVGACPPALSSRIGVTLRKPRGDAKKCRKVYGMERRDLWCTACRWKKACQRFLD

[4] = target: T4, clone 8 cDNA product (HD/TF-2) (Homo sapiens) (UniProt Q9H8N7); test: one hybrid; conditions: yeast one-hybrid reporter, unlabeled; protein in cells; protein details: GAL4 activation domain fusion (pACT2); label: 32P
T4 sequence (limits assumed): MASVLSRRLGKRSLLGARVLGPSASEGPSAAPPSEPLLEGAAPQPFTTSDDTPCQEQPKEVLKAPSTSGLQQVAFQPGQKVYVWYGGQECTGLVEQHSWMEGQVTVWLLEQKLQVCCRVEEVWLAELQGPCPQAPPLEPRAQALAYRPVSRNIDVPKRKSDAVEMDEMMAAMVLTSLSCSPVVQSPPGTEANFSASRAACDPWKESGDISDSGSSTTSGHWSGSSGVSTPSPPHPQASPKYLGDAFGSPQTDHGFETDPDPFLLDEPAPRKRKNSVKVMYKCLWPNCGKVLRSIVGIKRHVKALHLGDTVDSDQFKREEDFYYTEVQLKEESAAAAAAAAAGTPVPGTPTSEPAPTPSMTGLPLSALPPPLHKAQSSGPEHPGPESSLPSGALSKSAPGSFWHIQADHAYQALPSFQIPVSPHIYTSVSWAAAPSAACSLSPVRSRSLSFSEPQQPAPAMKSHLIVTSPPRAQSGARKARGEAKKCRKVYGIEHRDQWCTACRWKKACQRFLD

[5] = target: T1, HD/TF-1 C-terminal fragment (Homo sapiens); test: EMSA; conditions: C-terminal region is the DNA-binding region; purified recombinant protein; protein details: GST fusion (pGEX-5); label: 32P
[6] = target: T5, HD/TF-1 N-terminal fragment (Homo sapiens) (UniProt Q9NR83); test: EMSA; conditions: implied; binding reported only for C-terminal fragment; purified recombinant protein; protein details: GST fusion (pGEX-5); label: 32P
T5 sequence: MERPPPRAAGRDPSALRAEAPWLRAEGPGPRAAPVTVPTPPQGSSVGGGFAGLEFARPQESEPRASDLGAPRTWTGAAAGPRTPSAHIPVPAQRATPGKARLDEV

[7] = target: T6, HD/TF-1 middle fragment (Homo sapiens) (UniProt Q9NR83); test: EMSA; conditions: implied; binding reported only for C-terminal fragment; purified recombinant protein; protein details: GST fusion (pGEX-5); label: 32P
T6 sequence: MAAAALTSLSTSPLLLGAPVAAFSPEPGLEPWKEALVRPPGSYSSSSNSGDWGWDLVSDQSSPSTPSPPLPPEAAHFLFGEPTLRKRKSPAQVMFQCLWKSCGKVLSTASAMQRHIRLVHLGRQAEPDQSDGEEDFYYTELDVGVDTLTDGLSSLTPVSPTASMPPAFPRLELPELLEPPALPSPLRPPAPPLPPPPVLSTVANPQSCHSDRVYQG

Sequence	binding result [1]	binding result [2]	activity on this sequence [3]	activity on this sequence [4]	binding result [5]	binding result [6]	binding result [7]
GTTGAGCCCCGCGCCTTCGCCCGGGTGGGGCGCTGCGCTGTCAGCGGCTTGCTGTGTGAGGCAGAACCTGCGGGGGCAGGGGCGGGCTGGTTCCCTGGCCAGCCATTGGCAGAGTCCGCAGGCTAGGGCTGTCAATCATGCTGGCCGGCGTGGCCCCGCCTCCGCCGGCGCGGCCCCGCCTCCGCCGGCGCACGTCTGGGACGCAAGGCGCCGTGGGGGCTGCCGGGACGGGTCCAAGATGGACGGCCGCTCAGGTTCTGCTTTTACCTGCGGCCCAGAGCCCCATTCATTGCCCCGGTGCTGAGCGGCGCCGCGAGTCGGCCCGAGGCCTCCGGGGACTGCCGTGCCGGGCGGGAGACCGCCATGGCGACCCTGGAAAAGCTGATGAAGGCCTTCGAGTCCCTCAAGTCCTTCCAGCAGCAGCAGCAGCAGCAGCAGCAGCAGCAGCAGCAGCAGCAGCAGCAGCAGCAGCAGCAGCAACAGCCGCCACCGCCGCCGCCGCCGCCGCCGCCTCCTCAGCTTCCTCAGCC (double strand) [HD gene R1+R2 (-364 to -113)]	binds	binds					
GTTGAGCCCCGCGCCTTCGCCCGGGTGGGGCGCTGCGCTGTCAGCGGCTTGCTGTGTGAGGCAGAACCTGCGGGGGCAGGGGCGGGCTGGTTCCCTGGCCAGCCATTGGCAGAGTCCGCAGGCTAGGGCTGTCAATCATGCTGGCCGGCGTGGCCCCGCCTCCGCCGGCGCGGCCCCGCCTCCGCCGGCGCACGTCTGGGACGCAAGGCGCCGTGGGGGCTGCCGGGACGGGTCCAAGATGGACGGCCGCTCAGGTTCTGCTTTTACCTGCGGCCCAGAGCCCCATTCATTGCCCCGGTGCTGAGCGGCGCCGCGAGTCGGCCCGAGGCCTCCGGGGACTGCCGTGCCGGGCGGGAGACCGCCATGGCGACCCTGGAAAAGCTGATGAAGGCCTTCGAGTCCCTCAAGTCCTTCCAGCAGCAGCAGCAGCAGCAGCAGCAGCAGCAGCAGCAGCAGCAGCAGCAGCAGCAGCAGCAGCAACAGCCGCCACCGCCGCCGCCGCCGCCGCCGCCTCCTCAGCTTCCTCAGCC (double strand) [HD gene R2 (-230 to -113)]			active	active	binds	no binding	no binding
